# Values joined by “and” are separate entries in the source; they are usually repeats but may differ in a detail not shown here. Equal entries are not always repeated. Some of the results follow. Each value is one well over the wells without odorant, computed here; the data are noisy.
# Columns and labels:
# Experiment in all cases: odorant receptor activation (CRE luciferase / Renilla) (fold of no-odor wells); higher = more activation
# Conditions in all cases: 100 µM
# [1] = test system: OR2A2 F280L clone 1541
# [2] = test system: OR2A2 clone 1476
# [3] = test system: OR2A25 clone 1387
# [4] = test system: OR2A4 clone 1386
# [5] = test system: OR2A42 clone 1565
# [6] = test system: OR2A5 clone 1437
# [7] = test system: OR2A7 clone 1077
# [8] = test system: OR2A7 clone 1543
# [9] = test system: OR2AE1 I77T clone 1079
# [10] = test system: OR2AG1 clone 1112
# [11] = test system: OR2AG2 Y28C/R54P/R299G clone 1486
# [12] = test system: OR2AJ1 M1V clone 1448
# [13] = test system: OR2AK2 V188M clone 1415
# [14] = test system: OR2AP1 clone 1256
# [15] = test system: OR2AT4 clone 1522
# [16] = test system: OR2B11 clone 1418
# [17] = test system: OR2B2 clone 1333
# [18] = test system: OR2B2 clone 1544
# [19] = test system: OR2B3 clone 1063
# [20] = test system: OR2B6 clone 1436
Compound,odorant receptor activation [1],odorant receptor activation [2],odorant receptor activation [3],odorant receptor activation [4],odorant receptor activation [5],odorant receptor activation [6],odorant receptor activation [7],odorant receptor activation [8],odorant receptor activation [9],odorant receptor activation [10],odorant receptor activation [11],odorant receptor activation [12],odorant receptor activation [13],odorant receptor activation [14],odorant receptor activation [15],odorant receptor activation [16],odorant receptor activation [17],odorant receptor activation [18],odorant receptor activation [19],odorant receptor activation [20]
COc1cc(C=O)ccc1O [vanillin],0.854,1.11,1.25,1.29,0.762,1,0.596,0.893,0.79,0.811,0.963,0.887,0.95,1.07,1.03,1.15,0.994,0.859,1.11,0.887
COc1ccccc1O [guaiacol],0.999 and 1.14,0.968 and 0.969,0.778,0.875,0.817,0.79,1.53,1.06 and 0.92,1.04,0.996,0.728 and 1.03,0.83,0.824,0.865 and 0.938,0.675 and 1.32,0.936,0.766 and 0.876,1.01 and 1.02,0.901,0.949
C=CCc1ccc(OC(C)=O)c(OC)c1 [eugenol acetate],1.65,1.79,1.52,1.68,1.99,1.88,1.54,1.49,1.78,1.65,1.66,1.78,1.68,1.7,2.02,1.12,1.75,1.94,1.8,1.7
C=C(C)C1CC=C(C)C(=O)C1 (stereo not given) [r-carvone],0.884,1.02,1.88,1.12,0.795,1.16,0.837,0.804,0.957,0.857,0.871,1.14,1.26,0.832,0.946,1.79,0.713,0.884,1.08,1.08
C=CC(C)(O)CCC=C(C)C (stereo not given) [linalool],0.84,1.08,1.07,0.775,0.849,1.13,1.03,0.87,0.986,0.978,1.01,1.05,0.788,0.847,1.08,0.86,0.787,1.24,1.1,0.929
O=C1CCCCCCCCCCCC(=O)OCCO1 [ethylene brassylate],1.3,1.62,1.79,2.33,1.19,2.34,1.59,1.22,1.93,1.47,1.28,1.82,1.51,1.73,1.48,1.42,1.56,1.17,1.71,2.04
CC(C)CC(=O)O [isovaleric acid],0.73,0.815,1.14,0.73,1.13,0.906,0.938,0.83,1.4,0.888,0.741,0.71,0.754,0.631,1.06,0.798,0.871,0.937,1.27,0.846
"CC1CCC(C(C)C)C(O)C1 (single isomer, unassigned; (+)) [(+)-menthol]",1.22,1.11,1.02,0.82,0.53,0.623,3.89,0.932,22.3,9.35,0.946,1.26,1.13,0.982,1.16,1.35,1.1,1.22,9.96,1.37
C=CCc1ccc(OC)c(OC)c1 [eugenol methyl ether],1.26,1.74,1.16,1.78,0.726,1.54,1.35,1.37,1.73,1.14,1.59,1.58,1.62,1.59,1.87,1.3,1.72,1.64,1.39,1.8
CCCCCCCCCC=O [decyl aldehyde],1.23,1.1,1.49,1.36,0.991,1.67,1.23,1.24,1.42,1.29,1.07,1.33,1.54,1.36,1.64,1.01,1.43,1.49,1.15,1.93
CC(=O)OC1CC2CCC1(C)C2(C)C (stereo not given) [isobornyl acetate],0.962 and 0.877,1.09 and 1.03,0.946,0.893,1.16,0.968,0.823,0.913 and 0.699,0.663,0.845,0.802 and 0.96,0.895,0.798,1.08 and 0.792,0.858 and 1.24,1.01,1.08 and 0.698,1.01 and 0.795,0.684,0.936
CC/C=C\CCO [cis-3-hexen-1-ol],0.832,0.881,0.255,0.188,0.937,0.344,0.902,0.691,0.84,0.793,0.704,0.145,0.266,0.728,1.07,0.291,0.773,0.943,1.16,0.242
CCCCCCCCC=O [nonyl aldehyde],0.943,0.989,1.05,0.978,1.1,0.999,0.858,0.866,0.956,0.921,0.985,1.02,0.805,0.885,1.12,0.774,0.897,1.14,0.917,0.743

# Single records (already shown). Order of values: odorant receptor activation [1] | odorant receptor activation [2] | odorant receptor activation [3] | odorant receptor activation [4] | odorant receptor activation [5] | odorant receptor activation [6] | odorant receptor activation [7] | odorant receptor activation [8] | odorant receptor activation [9] | odorant receptor activation [10] | odorant receptor activation [11] | odorant receptor activation [12] | odorant receptor activation [13] | odorant receptor activation [14] | odorant receptor activation [15] | odorant receptor activation [16] | odorant receptor activation [17] | odorant receptor activation [18] | odorant receptor activation [19] | odorant receptor activation [20]
# CCCCCCCCCC=O [decyl aldehyde] is entered as 1.23 | 1.1 | 1.49 | 1.36 | 0.991 | 1.67 | 1.23 | 1.24 | 1.42 | 1.29 | 1.07 | 1.33 | 1.54 | 1.36 | 1.64 | 1.01 | 1.43 | 1.49 | 1.15 | 1.93
# CC/C=C\CCO [cis-3-hexen-1-ol] is entered as 0.832 | 0.881 | 0.255 | 0.188 | 0.937 | 0.344 | 0.902 | 0.691 | 0.84 | 0.793 | 0.704 | 0.145 | 0.266 | 0.728 | 1.07 | 0.291 | 0.773 | 0.943 | 1.16 | 0.242
